Values of other authors as cited in PMC5111108, “An insecticide resistance-breaking mosquitocide targeting inward rectifier potassium channels in vectors of Zika virus and malaria” (Scientific Reports, 2016).

Test system: An. gambiae Akron strain
Settings: topical; cited from earlier work

In the case of CC1(C)C(C=C(Cl)Cl)C1C(=O)OCc1cccc(Oc2ccccc2)c1 (stereo not shown) [Permethrin], the “Resistance Ratio (ED50 Akron/ED50 G3)” value is given as 33.
